We go through one molecule from paper doi:10.1101/2023.08.04.551977 (bioRxiv, 2023).

These are yes or no findings as the source states them, for the method shown. Some entries that bind do so weakly or less than the wild type.

This assay deals with menin Δ460-519/ 586-615 (human) (UniProt O00255). In words: SEC-MALS. (Size exclusion chromatography separates by hydrodynamic size, large species first.)

B1: menin Δ460-519/ 586-615 (natural protein)
chain: MGLKAAQKTLFPLRSIDDVVRLFAAELGREEPDLVLLSLVLGFVEHFLAVNRVIPTNVPELTFQPSPAPDPPGGLTYFPVADLSIIAALYARFTAQIRGAVDLSLYPREGGVSSRELVKKVSDVIWNSLSRSYFKDRAHIQSLFSFITGTKLDSSGVAFAVVGACQALGLRDVHLALSEDHAWVVFGPNGEQTAEVTWHGKGNEDRRGQTVNAGVAERSWLYLKGSYMRCDRKMEVAFMVCAINPSIDLHTDSLELLQLQQKLLWLLYDLGHLERYPMALGNLADLEELEPTPGRPDPLTLYHKGIASAKTYYRDEHIYPYMYLAGYHCRNRNVREALQAWADTATVIQDYNYCREDEEIYKEFFEVANDVIPNLLKEAASLLEAGEERPGEQSQGTQSQGSALQDPECFAHLLRFYDGICKWEEGSPTPVLHVGWATFLVQSLGRFEGQVRQKVRIVSGTVAGTARGPEGGSTAQVPAPTASPPPEGPVLTFQSEKMKGMKELLVATKINSSAIKLQLTAQSQV
modifications: RED-NHS 2nd generation dye label on the labelled partner in the MST experiments
With B1, the binding result was “binds”.
